Experimental findings from publication PMC10670284 are described below.

These are yes or no findings as the source states them, for the method shown. Binding seen in cells or lysates may run through a third protein. Some entries that bind do so weakly or less than the wild type. Tags and fused reporters may be left off the sequences shown.

The assay concerns the target T1, EGFP-tagged KDM2A, Q9Y2K7.
T1 chain: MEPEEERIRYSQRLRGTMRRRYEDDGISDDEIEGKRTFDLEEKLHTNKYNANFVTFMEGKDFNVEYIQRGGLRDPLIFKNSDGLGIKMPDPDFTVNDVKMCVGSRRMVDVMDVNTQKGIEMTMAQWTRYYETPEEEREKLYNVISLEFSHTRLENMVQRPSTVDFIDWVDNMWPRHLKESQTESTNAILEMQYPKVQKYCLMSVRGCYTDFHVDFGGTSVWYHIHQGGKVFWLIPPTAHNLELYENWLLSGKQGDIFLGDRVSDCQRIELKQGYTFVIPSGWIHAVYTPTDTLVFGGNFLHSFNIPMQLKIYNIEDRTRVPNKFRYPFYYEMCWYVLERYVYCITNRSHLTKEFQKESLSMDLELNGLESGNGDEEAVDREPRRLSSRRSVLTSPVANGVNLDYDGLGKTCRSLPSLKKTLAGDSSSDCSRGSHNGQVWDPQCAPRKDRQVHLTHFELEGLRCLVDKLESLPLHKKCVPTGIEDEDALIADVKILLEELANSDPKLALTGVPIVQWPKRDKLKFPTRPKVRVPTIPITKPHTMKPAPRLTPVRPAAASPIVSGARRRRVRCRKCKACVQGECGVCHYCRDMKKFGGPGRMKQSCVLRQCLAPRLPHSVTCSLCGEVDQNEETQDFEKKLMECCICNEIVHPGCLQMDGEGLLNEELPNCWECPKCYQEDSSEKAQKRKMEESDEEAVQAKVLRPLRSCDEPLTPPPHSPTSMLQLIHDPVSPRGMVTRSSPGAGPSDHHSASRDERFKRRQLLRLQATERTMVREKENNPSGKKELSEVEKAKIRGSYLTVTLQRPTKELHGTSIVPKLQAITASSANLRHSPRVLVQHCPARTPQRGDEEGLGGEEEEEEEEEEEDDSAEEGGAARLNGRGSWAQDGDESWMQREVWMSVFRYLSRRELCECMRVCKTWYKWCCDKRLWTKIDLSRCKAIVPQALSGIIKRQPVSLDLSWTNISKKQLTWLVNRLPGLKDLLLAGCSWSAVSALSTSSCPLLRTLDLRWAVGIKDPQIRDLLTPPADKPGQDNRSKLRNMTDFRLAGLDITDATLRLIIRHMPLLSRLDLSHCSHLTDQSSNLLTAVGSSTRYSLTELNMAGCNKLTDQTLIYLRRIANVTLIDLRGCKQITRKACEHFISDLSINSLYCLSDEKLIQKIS
Description: co-IP; GFP-trap (Chromotek EGFP-nanobody agarose beads): 0.5 mg whole cell extract of HEK293T cells overexpressing an EGFP-tagged protein, 2 h at +4 °C; extracts diluted to 150 mM NaCl and 0.1% NP-40; co-trapped proteins shown by Western blot. Conditions: remark: other sources report otherwise. (In general: A western blot detects proteins with antibodies after separation by electrophoresis.)

B1: beta-catenin (endogenous), P35222 1-781 (protein)
chain: MATQADLMELDMAMEPDRKAAVSHWQQQSYLDSGIHSGATTTAPSLSGKGNPEEEDVDTSQVLYEWEQGFSQSFTQEQVADIDGQYAMTRAQRVRAAMFPETLDEGMQIPSTQFDAAHPTNVQRLAEPSQMLKHAVVNLINYQDDAELATRAIPELTKLLNDEDQVVVNKAAVMVHQLSKKEASRHAIMRSPQMVSAIVRTMQNTNDVETARCTAGTLHNLSHHREGLLAIFKSGGIPALVKMLGSPVDSVLFYAITTLHNLLLHQEGAKMAVRLAGGLQKMVALLNKTNVKFLAITTDCLQILAYGNQESKLIILASGGPQALVNIMRTYTYEKLLWTTSRVLKVLSVCSSNKPAIVEAGGMQALGLHLTDPSQRLVQNCLWTLRNLSDAATKQEGMEGLLGTLVQLLGSDDINVVTCAAGILSNLTCNNYKNKMMVCQVGGIEALVRTVLRAGDREDITEPAICALRHLTSRHQEAEMAQNAVRLHYGLPVVVKLLHPPSHWPLIKATVGLIRNLALCPANHAPLREQGAIPRLVQLLVRAHQDTQRRTSMGGTQQQFVEGVRMEEIVEGCTGALHILARDVHNRIVIRGLNTIPLFVQLLYSPIENIQRVAAGVLCELAQDKEAAEAIEAEGATAPLTELLHSRNEGVATYAAAVLFRMSEDKPQDYKKRLSVELTSSLFRTEPMAWNETADLGLDIGAQGEPLGYRQDDPSYRSFHSGGYGQDALGMDPMMEHEMGGHHPGADYPVDGLPDLGHAQDLMDGLPPGDSNQLAWFDTDL
Turning to B1, the binding entry is recorded as “binds”.
